About 15 (0.7%) of roughly 2,200 compounds were called active.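 Rule for the calls: active = fitted half-maximal concentration for loss of luminescence signal no more than a set limit of log units above the top tested concentration; inconclusive = flat fit with 30 to 70% signal loss, or invalid fit; inactive = half-maximal concentration above that set limit.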 Some of the results follow.

The nature of the assay: inhibitors of ADP-Glo detection reagents, dose response, artefact control for GSK3beta inhibitor project, biochemical, luminescence, cell-free, homogeneous (AID 434947).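 Note: kinase-free counter screen of ADP-Glo detection reagents for GSK3beta hits.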 Conditions: 5 uM ADP. A general note: In ADP-Glo the light output rises with the ADP produced.
In the case of `O=C(COc1cccc2cccnc12)N/N=C/c1ccc(O)cc1`, the EC50 was inactive: > 30 µM. Consider `CC(C)Nc1nc(-c2ccncc2)nc(-c2ccccc2)c1C#N`, for which the EC50 is inactive: > 30 µM. Regarding `CN(C)Cc1c(O)ccc2c1O/C(=C\C=C\c1ccccc1)C2=O`, the EC50 was inactive: > 30 µM. With `CCOC(=O)N1CCN(S(=O)(=O)c2cc(Br)cc3c2N(C(=O)C2CC2)CC3)CC1`, the EC50 is inactive: > 30 µM.

For the compound `CC(NC(=O)/C=C/c1ccco1)c1nc2ccccc2n1Cc1ccccc1F` (configuration not stated), the EC50 was inactive: > 30 µM. Take `CC(=O)Nc1ccc(Cc2nc3c([nH]2)c(=O)n(C)c(=O)n3C)cc1`: the EC50 is inactive: > 30 µM.

With `CCN(CC)CCCNc1nc(N)c([N+](=O)[O-])c(NCCO)n1`, the EC50 was inactive: > 30 µM. Regarding `c1csc(C2=Nn3c(nnc3-c3ccncc3)SC2)c1`, the EC50 is inactive: > 30 µM. Regarding `O=C(OCCCN1CCCCC1)c1ccc(O)cc1`, the EC50 is inactive: > 30 µM. For `COc1cccc(C(=O)Nc2nnc(C(C)C)s2)c1`, the EC50 is inactive: > 30 µM. In the case of `COc1cccc(C2CC(c3ccc(Cl)cc3)n3nc(N)nc3N2)c1` (configuration not stated), the EC50 is inactive: > 30 µM. Take `Oc1ccc(/C=N/Nc2ccc(C(F)(F)F)cn2)cc1O`: the EC50 is inactive: > 30 µM. Regarding `FC(F)(F)COc1ccc(-n2ccnc2)nn1`, the EC50 was inactive: > 30 µM. Regarding `Cc1ccc2nc3c(cc2c1)c(NC(=O)C(C)(C)C)nn3CC(C)C`, the EC50 was inactive: > 30 µM.

As for `COc1ccc(OC)c(Nc2nc(N)c([N+](=O)[O-])c(NCc3ccccc3)n2)c1`, the EC50 was inactive: > 30 µM. Consider `CC(=O)Nc1ccc(S(=O)(=O)NCc2ccc(C)n2C)cc1`, for which the EC50 is inactive: > 30 µM. As for `CCCCn1nc(NC(=O)CCC)c2cc3cc(OC)ccc3nc21`, the EC50 is inactive: > 30 µM.

`CC(=O)c1cccc(S(=O)(=O)NC2CCSc3ccccc32)c1` (configuration not stated): the EC50 was inactive: > 30 µM. On to `COC(=O)c1nnn(-c2nonc2N)c1CSc1ccc(Cl)cc1`, for which the EC50 was inactive: > 30 µM. For `CCOC(=O)c1cnc2ccc(Cl)cc2c1Nc1ccc(S(=O)(=O)Nc2ncccn2)cc1`, the EC50 is inactive: > 30 µM. For the compound `C[C@H](NC(=O)[C@@H]1CSC2c3ccccc3C(=O)N21)C(=O)NCc1c(F)cccc1Cl` (some centres not stated), the EC50 is inactive: > 30 µM. With `c1cncc(-c2nc(NCc3ccco3)c3ccccc3n2)c1`, the EC50 was inactive: > 30 µM. Consider `O=C(CN1C(=O)CCC1=O)Nc1ccc(Br)cc1`, for which the EC50 is inactive: > 30 µM.

For `COc1ccc(-c2c(C)n([O-])c(C)c(C)[n+]2=O)cc1`, the EC50 was inactive: > 30 µM.

As for `CC1=C(C(=O)OCc2ccccc2)C(c2cccnc2)n2ncnc2N1` (configuration not stated), the EC50 was inactive: > 30 µM. On to `Nc1nonc1-n1nnc(C(=O)N/N=C/c2ccccc2O)c1CN1CCCC1`, for which the EC50 is inactive: > 30 µM. To `O=C(Nc1cccnc1)Nc1ccccn1` belongs inactive: > 30 µM; to `CCC(=O)Nc1ccc(Nc2nc(C)c([N+](=O)[O-])c(Nc3ccc(NC(=O)CC)cc3)n2)cc1`, inactive: > 30 µM. Take `Cc1cccc(Nc2nc(N)c([N+](=O)[O-])c(N3CCOCC3)n2)c1`: the EC50 is inactive: > 30 µM. To `COc1ccc(C(=O)c2sc(Nc3ccccc3F)nc2N)cc1` belongs inactive: > 30 µM. Regarding `C=CCOc1ccc(/C=N/Nc2ccccn2)cc1OC`, the EC50 was inactive: > 30 µM.

As to `c1ccc(CNc2ncnc3scc(-c4cccs4)c23)nc1`, the EC50 was inactive: > 30 µM. With `Cc1ccnc(NC(=O)Cn2ccc([N+](=O)[O-])n2)c1`, the EC50 is inactive: > 30 µM.

Turning to `O=C(CCCC1=NS(=O)(=O)c2ccccc2N1)Nc1ccccc1`, the EC50 was inactive: > 30 µM. `CN1CCN(C(=O)Cn2ncc3c([nH]c4ccccc43)c2=O)CC1`: the EC50 was inactive: > 11 µM. Consider `CC(C)(C)C(=O)c1cnc(Nc2ccccc2)s1`, for which the EC50 was inactive: > 30 µM.

On to `CCOC(=O)CC(=O)CSc1ccc2nnc(-c3ccccc3)n2n1`, for which the EC50 is inactive: > 30 µM. Consider `c1cncc(CNc2nc(-c3cccnc3)nc3ccccc23)c1`, for which the EC50 was inactive: > 30 µM. Take `O=C(COc1ccccc1[N+](=O)[O-])N/N=C/c1ccncc1`: the EC50 was inactive: > 30 µM. Regarding `Cc1nn(C)c(C)c1S(=O)(=O)N(CC(=O)Nc1nccs1)c1ccc(C(C)C)cc1`, the EC50 is inactive: > 30 µM. For `CCCCn1nc(NC(=O)CC)c2cc3cc(OC)ccc3nc21`, the EC50 was inactive: > 30 µM. For the compound `O=C(NCc1ccncc1)C1CCC(=O)N(CCc2ccc(Cl)cc2)C1` (configuration not stated), the EC50 was inactive: > 30 µM.

Turning to `COc1ccc(Nc2nc(N)c([N+](=O)[O-])c(NC3CCCCC3)n2)cc1`, the EC50 is inactive: > 30 µM. Regarding `CC(=O)N1CCc2c(sc(NC(=O)CCS(=O)(=O)c3ccc(C)cc3)c2C(N)=O)C1`, the EC50 was inactive: > 30 µM. To `NC(=O)c1c(NC(=O)c2ccncc2)sc2c1CCCC2` belongs inactive: > 30 µM; to `CC(C)CCNc1nc(N)c([N+](=O)[O-])c(NCCO)n1`, inactive: > 30 µM. For `O=c1cc(-c2ccccc2Cl)oc2c(NS(=O)(=O)c3ccccc3C(F)(F)F)ccc(O)c12`, the EC50 is inactive: > 30 µM. Take `CC(C)C1Cc2c(sc3c2c(=O)n(-c2ccccc2)c2n[nH]c(=S)n32)CO1` (configuration not stated): the EC50 is inactive: > 30 µM.

On to `O=C(Oc1ccc(F)c(F)c1)c1ccc2c(=O)n3c(nc2c1)CCC3`, for which the EC50 is inactive: > 30 µM. As for `COc1ccc(OC)c(C(O)c2coc3ccc(O)c(CN(C)C)c23)c1` (configuration not stated), the EC50 was inactive: > 30 µM. Under `CCn1c(/C=C/N(C)c2ccccc2)[n+](CC)c2ccc(Cl)cc21` stands inactive: > 30 µM. Turning to `COc1ccc(C(=O)c2coc3ccc(OC(C)=O)cc23)cc1`, the EC50 was inactive: > 30 µM. Consider `CCOc1cc(C)cc2oc(=O)cc(-c3ccccc3)c12`, for which the EC50 is inactive: > 30 µM.

With `Nc1nc(NCC2CCCO2)nc(Nc2ccc(Cl)cc2)c1[N+](=O)[O-]` (configuration not stated), the EC50 is inactive: > 30 µM. For the compound `Cc1ccc(N2CSC3=C(C#N)C(c4cccs4)CC(=O)N3C2)cc1` (configuration not stated), the EC50 was inactive: > 30 µM. On to `COCCCNC(=O)c1ccc(CS(=O)(=O)c2ccc(OC)cc2)o1`, for which the EC50 was inactive: > 30 µM.

Regarding `Cc1ccc(S(=O)(=O)CCSc2n[nH]c(=O)n2-c2ccc3c(c2)OCCO3)cc1`, the EC50 is inactive: > 30 µM. For `COC1=CC(=O)CC(C)C12Oc1cc(OC)cc(OC)c1C2=O` (configuration not stated), the EC50 is inactive: > 30 µM.

In the case of `COc1ccc(-c2nn(-c3ccccc3)cc2/C=N/Nc2ccccn2)cc1`, the EC50 was inactive: > 30 µM. To `Cc1c(C(=O)O)sc2c1c(=O)n(Cc1ccccc1)c(=O)n2C` belongs inactive: > 30 µM; to `CC(C)N1CCc2c(sc(NC(=O)CN3C(=O)c4ccccc4C3=O)c2C(N)=O)C1`, inactive: > 30 µM; to `O=C(OCCCOC(=O)c1cc[n+]([O-])cc1)c1cc[n+]([O-])cc1`, inactive: > 30 µM.

As to `N#C/C(=C/c1cn[nH]c1-c1ccc(Br)cc1)C(=O)O`, the EC50 was inactive: > 30 µM. Consider `COc1cccc(C(=O)NCC(c2ccco2)N2CCc3ccccc3C2)c1` (configuration not stated), for which the EC50 was inactive: > 30 µM. Under `CCN(CC)C(=O)CSc1nc(N)c(C#N)c(-c2cccs2)c1C#N` stands inactive: > 30 µM; under `O=Cc1cn(-c2ccccc2)nc1-c1ccccc1`, inactive: > 30 µM; under `O=C(c1cc(COc2ccc(F)cc2F)on1)N1CCCC(c2ccccc2)C1` (configuration not stated), inactive: > 30 µM.

In the case of `CC1(C)CC(=O)C=C(NCc2ccccc2)C1`, the EC50 is inactive: > 30 µM.

With `COc1ccc(C(=O)c2sc(Nc3ccccc3)nc2N)cc1OC`, the EC50 is inactive: > 30 µM. As to `CC1CCCC(NC(=O)C2CCN(C(=O)Nc3ccccc3)CC2)C1C` (configuration not stated), the EC50 is inactive: > 30 µM.

Regarding `Cc1cc2cc(CN(CCCN3CCOCC3)C(=O)NC3CCCCC3)c(=O)[nH]c2cc1C`, the EC50 was inactive: > 30 µM.

With `CCOC(=O)c1cnc2c(OC)cccc2c1N1CCN(c2ccc(OC)cc2)CC1`, the EC50 is inactive: > 30 µM.

With `NS(=O)(=O)c1ccc(N=Nc2c[nH]c(=O)c(O)c2)cc1`, the EC50 is inactive: > 30 µM. For the compound `CCN1CCc2c(sc(NC(=O)CN3C(=O)c4ccccc4C3=O)c2C(N)=O)C1`, the EC50 was inactive: > 30 µM. `Cc1ccnc(NC(=O)c2ccc([N+](=O)[O-])o2)c1`: the EC50 was inactive: > 30 µM. Turning to `CSc1nc(SCC(=O)NCC2CCCO2)c2c3c(sc2n1)CN(C)CC3` (configuration not stated), the EC50 was inactive: > 30 µM. On to `CC1(C)CC(=O)C=C(Nc2cc(-c3ccccc3)[nH]n2)C1`, for which the EC50 was inactive: > 30 µM.

Consider `O=C(O/N=C\c1ccc(N2CCCCC2)c([N+](=O)[O-])c1)c1c(F)cccc1F`, for which the EC50 was inactive: > 30 µM. Turning to `O=c1c2c3c(sc2nc2n1N=C(c1cccs1)CS2)CCCC3`, the EC50 is inactive: > 30 µM.

Regarding `CCOC(=O)C1=C(C)Nc2ncnn2C1c1ccccc1F` (configuration not stated), the EC50 is inactive: > 30 µM. For the compound `CNc1nc(N)c([N+](=O)[O-])c(NC2CCCCC2)n1`, the EC50 was inactive: > 30 µM. For the compound `CC(=O)N1CCc2c(sc(NC(=O)CN3C(=O)CCC3=O)c2C(N)=O)C1`, the EC50 was inactive: > 30 µM. Take `COCCOC(=O)c1c(C)oc2ccc(OC(=O)c3cccs3)cc12`: the EC50 was inactive: > 30 µM. Consider `Cn1nnnc1Sc1c(Cl)cccc1[N+](=O)[O-]`, for which the EC50 was inactive: > 30 µM. For `COc1ccc(OCCCC(=O)NCc2ccco2)cc1`, the EC50 is inactive: > 30 µM. As for `O=C(O)c1ccccc1NC(=O)c1ccccc1Nc1ccccc1`, the EC50 is inactive: > 30 µM. Under `CC(CC(=O)Nc1ccc(F)c([N+](=O)[O-])c1)c1ccccc1` (configuration not stated) stands inactive: > 30 µM. Turning to `Cc1ncsc1CCSc1nc2ccccc2c(=O)n1C`, the EC50 is inactive: > 30 µM. Consider `Cc1c(O)c(CN2CCCCC2)cc2c1oc(=O)c1ccccc12`, for which the EC50 is inactive: > 30 µM. `O=C(N/N=C/c1ccco1)c1ccn[nH]1`: the EC50 was inactive: > 30 µM. Turning to `O=C(C[n+]1ccc(/C=C/c2ccccc2)cc1)c1ccc2c(c1)OCCO2`, the EC50 was inactive: > 30 µM.

For the compound `Cc1ccc(NC(=S)NC2CC3CCC(C2)N3Cc2ccco2)c(C)c1` (configuration not stated), the EC50 was inactive: > 30 µM.

As a reminder, the EC50 is the concentration needed to bring the measured effect to its halfway point.

The record behind these values is PubChem BioAssay AID434947 (Broad Institute, 2010).
